Experimental data: patent US20130123349A1
No constants are given. Whether binding was seen depends on the method and setting. Some entries that bind do so weakly or less than the wild type.

Amino acid sequences for entries named in this document (tags omitted). A change or cut given only in a name is not applied to a line headed by its entry. Residues count along the entry.
UniProt P02458, residues 201-1214: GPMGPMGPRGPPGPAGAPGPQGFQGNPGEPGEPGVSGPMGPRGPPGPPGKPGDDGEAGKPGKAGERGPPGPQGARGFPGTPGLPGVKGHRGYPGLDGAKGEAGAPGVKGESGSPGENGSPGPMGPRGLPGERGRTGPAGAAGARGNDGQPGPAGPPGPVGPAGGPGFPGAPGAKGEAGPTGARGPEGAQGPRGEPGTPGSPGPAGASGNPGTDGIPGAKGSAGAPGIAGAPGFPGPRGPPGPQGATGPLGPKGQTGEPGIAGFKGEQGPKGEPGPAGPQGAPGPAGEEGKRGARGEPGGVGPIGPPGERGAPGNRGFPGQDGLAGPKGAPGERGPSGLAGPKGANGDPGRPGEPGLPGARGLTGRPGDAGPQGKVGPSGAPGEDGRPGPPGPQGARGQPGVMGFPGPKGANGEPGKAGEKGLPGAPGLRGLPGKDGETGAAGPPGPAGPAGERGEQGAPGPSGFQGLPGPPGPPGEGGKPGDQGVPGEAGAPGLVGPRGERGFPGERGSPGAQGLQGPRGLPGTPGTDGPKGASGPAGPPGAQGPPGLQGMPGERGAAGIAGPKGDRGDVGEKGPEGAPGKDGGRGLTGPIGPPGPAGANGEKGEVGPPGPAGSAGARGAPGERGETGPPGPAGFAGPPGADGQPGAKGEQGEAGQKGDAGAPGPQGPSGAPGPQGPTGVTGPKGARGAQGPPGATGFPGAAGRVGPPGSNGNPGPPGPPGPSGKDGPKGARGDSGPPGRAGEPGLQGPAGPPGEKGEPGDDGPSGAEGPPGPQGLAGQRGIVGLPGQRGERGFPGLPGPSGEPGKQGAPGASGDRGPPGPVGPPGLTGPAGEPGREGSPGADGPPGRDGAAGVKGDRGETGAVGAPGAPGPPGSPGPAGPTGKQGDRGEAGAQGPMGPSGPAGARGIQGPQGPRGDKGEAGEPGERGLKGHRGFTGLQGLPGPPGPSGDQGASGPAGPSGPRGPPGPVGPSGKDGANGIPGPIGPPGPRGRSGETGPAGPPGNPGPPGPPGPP
UniProt P02461, residues 168-1196: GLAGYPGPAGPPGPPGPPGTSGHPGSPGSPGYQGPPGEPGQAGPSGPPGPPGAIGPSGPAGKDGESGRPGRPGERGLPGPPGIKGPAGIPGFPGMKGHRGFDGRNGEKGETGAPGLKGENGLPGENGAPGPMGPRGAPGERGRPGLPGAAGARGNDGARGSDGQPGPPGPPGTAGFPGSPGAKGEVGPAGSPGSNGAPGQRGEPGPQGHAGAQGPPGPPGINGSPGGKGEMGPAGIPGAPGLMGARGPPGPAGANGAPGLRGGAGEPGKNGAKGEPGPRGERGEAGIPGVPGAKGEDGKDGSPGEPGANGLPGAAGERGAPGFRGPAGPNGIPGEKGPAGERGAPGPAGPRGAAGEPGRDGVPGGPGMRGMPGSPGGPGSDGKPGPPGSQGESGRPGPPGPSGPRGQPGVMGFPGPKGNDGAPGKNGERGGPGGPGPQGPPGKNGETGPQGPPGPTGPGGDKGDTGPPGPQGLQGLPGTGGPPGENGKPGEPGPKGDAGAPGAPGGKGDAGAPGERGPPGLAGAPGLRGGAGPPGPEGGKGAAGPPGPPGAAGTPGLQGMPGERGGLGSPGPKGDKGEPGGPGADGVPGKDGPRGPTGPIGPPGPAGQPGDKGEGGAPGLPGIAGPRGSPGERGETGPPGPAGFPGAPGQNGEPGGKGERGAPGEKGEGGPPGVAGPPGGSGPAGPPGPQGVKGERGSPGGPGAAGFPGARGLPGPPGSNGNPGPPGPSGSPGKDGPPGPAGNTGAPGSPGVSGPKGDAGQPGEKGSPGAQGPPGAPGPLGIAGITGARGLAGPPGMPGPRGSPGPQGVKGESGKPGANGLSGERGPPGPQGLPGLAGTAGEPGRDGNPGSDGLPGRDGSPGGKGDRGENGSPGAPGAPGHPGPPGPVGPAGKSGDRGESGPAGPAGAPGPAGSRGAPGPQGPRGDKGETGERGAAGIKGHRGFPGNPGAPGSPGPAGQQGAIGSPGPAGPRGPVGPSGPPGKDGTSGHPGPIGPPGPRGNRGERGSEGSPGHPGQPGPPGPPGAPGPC
UniProt Q9HCN6, residues 21-267: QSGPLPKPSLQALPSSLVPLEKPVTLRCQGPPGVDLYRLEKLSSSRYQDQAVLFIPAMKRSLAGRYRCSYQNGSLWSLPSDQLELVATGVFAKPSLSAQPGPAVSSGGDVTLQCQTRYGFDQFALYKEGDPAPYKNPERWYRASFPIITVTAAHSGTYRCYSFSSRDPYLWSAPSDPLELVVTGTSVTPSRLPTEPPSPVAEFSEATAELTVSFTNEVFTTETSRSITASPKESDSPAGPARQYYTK
UniProt O01949: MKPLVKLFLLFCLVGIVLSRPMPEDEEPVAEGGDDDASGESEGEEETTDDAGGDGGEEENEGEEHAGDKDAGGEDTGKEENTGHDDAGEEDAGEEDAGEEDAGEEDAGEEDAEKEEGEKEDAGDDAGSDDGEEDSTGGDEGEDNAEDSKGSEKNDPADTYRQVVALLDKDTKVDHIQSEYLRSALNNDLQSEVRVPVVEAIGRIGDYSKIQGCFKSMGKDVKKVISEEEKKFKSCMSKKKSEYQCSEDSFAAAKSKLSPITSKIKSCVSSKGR
UniProt P02452: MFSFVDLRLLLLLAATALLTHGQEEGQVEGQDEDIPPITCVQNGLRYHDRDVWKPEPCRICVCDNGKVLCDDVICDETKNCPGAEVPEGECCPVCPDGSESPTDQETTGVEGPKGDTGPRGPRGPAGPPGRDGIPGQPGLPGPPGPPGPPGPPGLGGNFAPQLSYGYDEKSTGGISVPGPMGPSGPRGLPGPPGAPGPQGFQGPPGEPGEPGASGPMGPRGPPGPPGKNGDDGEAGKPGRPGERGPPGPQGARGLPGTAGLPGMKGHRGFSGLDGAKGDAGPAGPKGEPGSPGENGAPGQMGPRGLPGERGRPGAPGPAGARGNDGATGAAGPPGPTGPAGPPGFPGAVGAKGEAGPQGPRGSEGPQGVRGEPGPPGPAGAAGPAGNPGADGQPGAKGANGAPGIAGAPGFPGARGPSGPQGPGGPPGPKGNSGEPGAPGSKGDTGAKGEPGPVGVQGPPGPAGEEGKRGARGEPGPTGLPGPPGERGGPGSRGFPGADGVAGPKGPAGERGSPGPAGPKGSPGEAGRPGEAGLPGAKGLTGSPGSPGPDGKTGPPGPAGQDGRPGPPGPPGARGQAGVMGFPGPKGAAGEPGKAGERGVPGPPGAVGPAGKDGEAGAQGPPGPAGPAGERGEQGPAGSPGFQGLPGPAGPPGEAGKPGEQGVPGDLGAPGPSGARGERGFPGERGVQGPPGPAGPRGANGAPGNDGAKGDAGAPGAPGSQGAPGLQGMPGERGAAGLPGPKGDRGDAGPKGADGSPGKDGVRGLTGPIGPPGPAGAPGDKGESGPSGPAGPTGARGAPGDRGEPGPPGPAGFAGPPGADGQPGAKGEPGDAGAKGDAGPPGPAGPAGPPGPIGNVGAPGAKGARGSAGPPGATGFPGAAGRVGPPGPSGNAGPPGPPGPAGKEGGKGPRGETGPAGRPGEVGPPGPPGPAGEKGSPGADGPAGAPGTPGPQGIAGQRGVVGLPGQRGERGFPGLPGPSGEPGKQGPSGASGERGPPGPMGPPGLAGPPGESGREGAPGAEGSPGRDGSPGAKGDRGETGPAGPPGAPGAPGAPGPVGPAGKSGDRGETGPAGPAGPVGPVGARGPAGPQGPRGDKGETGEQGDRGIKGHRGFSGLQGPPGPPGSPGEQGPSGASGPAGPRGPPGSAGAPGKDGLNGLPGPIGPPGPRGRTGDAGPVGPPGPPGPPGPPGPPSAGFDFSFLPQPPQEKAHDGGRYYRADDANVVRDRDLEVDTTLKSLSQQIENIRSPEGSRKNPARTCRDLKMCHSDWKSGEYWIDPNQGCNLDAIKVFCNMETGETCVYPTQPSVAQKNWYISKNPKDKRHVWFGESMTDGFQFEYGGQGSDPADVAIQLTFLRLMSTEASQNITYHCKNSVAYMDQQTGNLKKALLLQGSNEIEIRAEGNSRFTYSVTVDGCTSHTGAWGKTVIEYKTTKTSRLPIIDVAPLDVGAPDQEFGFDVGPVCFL

Key:
[1] = target: soluble collagen type II (human) (UniProt P02458); test: SPR
[2] = target: soluble collagen type III (pepsin-digested, non-fibrillar; BD Biosciences) (human) (UniProt P02461); test: SPR
[3] = target: soluble collagen type II (human) (UniProt P02458); test: SPR (FIG. 1C, collagen I-III)
[4] = target: soluble collagen type III (pepsin-digested, non-fibrillar; BD Biosciences) (human) (UniProt P02461); test: SPR (FIG. 1C, collagen I-III)
[5] = target: soluble collagen type III (pepsin-digested, non-fibrillar; BD Biosciences) (human) (UniProt P02461); test: SPR, Aegyptin injected over immobilized collagen type III
[6] = target: soluble collagen type II (human) (UniProt P02458); test: SPR, Aegyptin injected over immobilized matrix proteins; concentration not given
[7] = target: soluble collagen type III (pepsin-digested, non-fibrillar; BD Biosciences) (human) (UniProt P02461); test: as above
[8] = target: soluble collagen type III (pepsin-digested, non-fibrillar; BD Biosciences) (human) (UniProt P02461); test: ELISA, blocking: coated collagen type III preincubated with Aegyptin, then 3 nM vWf, detected with anti-vWf
[9] = target: recombinant GPVI (UniProt Q9HCN6); test: SPR, collagen type I injected over immobilized GPVI
[10] = target: recombinant GPVI (UniProt Q9HCN6); test: SPR, collagen type I preincubated with buffer and injected over immobilized GPVI

Measured: binding

recombinant Aegyptin (from UniProt O01949 20-273)
not listed: [9] | [10]
binds: all other assays above

soluble collagen type I (pepsin-digested, non-fibrillar, triple helical; BD Biosciences) (from UniProt P02452 179-1192; P08123 91-1104)
binds: [9] | [10]
